The structures appear in SMILES notation. The list does not hold the whole screen: it gathers tests that were run many times, whatever their T/C, doses with no T/C, and many T/C values between a quarter and a half above the control. Other doses and runs of a compound stand elsewhere. T/C gives the treated animals as a percentage of the vehicle group. Some doses have a count of surviving animals in place of a T/C: the source holds a T/C of zero for them, seemingly a mark for toxic or unscored doses. Some survivor counts are full or nearly so, which does not show that the dose was tolerated: survival well below the control is almost never listed, so the zero probably covers shortened survival too. Counts of survivors are from the toxicity check (mostly the fifth day) where no day follows; animals may have died later. Schedules are NCI's codes, taken here to give the interval after Q, in days (D) or hours (H), and the number of doses after X. For survival time, the PubChem record calls one and a half times the control and up active, and a quarter to a half above the control has no call in these data; cut-offs in other NCI protocols can differ. Some T/C values carry the count of animals alive at the toxicity check (mostly the fifth day); where none is given, no animal had died by that day.

The text below walks through data of PubChem BioAssay AID330 (DTP/NCI, 2004).

The experiment deals with P388 leukemia ip, CD2F1 mice, survival T/C. In words: NCI In Vivo Anticancer Drug Screen. Data for tumor model P388 Leukemia (intraperitoneal) in CD2F1 (CDF1) mice. The following applies: T/C endpoint: median survival time, higher T/C = longer survival.
Setting [1] is: dose: 200.0 mg/kg/injection, schedule: Q01DX005 (ip), vehicle: saline with Tween-80.
Where [2] appears, read: dose: 200.0 mg/kg/injection, schedule: Q01DX009 (ip), vehicle: saline with Tween-80.
The mark [3] stands for this setting: dose: 12.5 mg/kg/injection, schedule: Q01DX005 (ip), vehicle: saline with Tween-80.
The mark [4] stands for this setting: dose: 240.0 mg/kg/injection, schedule: Q01DX005 (ip), vehicle: saline with Tween-80.

With `CCCC1N=C(N)N=C(N)N1c1ccc(OC)cc1` (stereo not given), the survivor count reads like this: (dose: 100.0 mg/kg/injection, schedule: Q01DX005 (ip), vehicle: saline with Tween-80) 1 of 5; under setting [1], 0 of 5.

Consider `O=C(Nc1cccc2ccccc12)Oc1cccc2cccnc12`, for which the survivor count under setting [2] is on record as 2 of 6.

`CCCCCCCCCCCCn1c2nc(=O)[nH]c(=O)c-2nc2ccccc21`: the survivor count runs as follows: under setting [3], 6 of 6; (dose: 25.0 mg/kg/injection, schedule: Q01DX005 (ip), vehicle: saline with Tween-80) 6 of 6; (dose: 50.0 mg/kg/injection, schedule: Q01DX005 (ip), vehicle: saline with Tween-80) 6 of 6.

Take `COc1cc2c(cc1OC)C13CC(=O)N(C(C)=O)N1CCCN3C2=O` (stereo not given): under “dose: 60.0 mg/kg/injection, schedule: Q01DX005 (ip), vehicle: Klucel (hydroxypropylcellulose) (HPC)”, the survivor count was 6 of 6.

Turning to `COc1c2occc2c(NC(=O)CCl)c2ccc(=O)oc12`, the survivor count (dose: 400.0 mg/kg/injection, schedule: Q04DX002 (ip), vehicle: saline with Tween-80) is recorded as 0 of 6.

As for `c1cnc2c(c1)Sc1ncccc1S2`, the survivor count under setting [2] is on record as 2 of 6.

As to `COc1ccc(CC2C(=O)NC(C)C(=O)N(C)C3Cc4ccc(cc4)Oc4cc(ccc4OC)CC(C(=O)NC(C)C(=O)NC(C)C(=O)N2C)N(C)C3=O)cc1` (stereo not given), the T/C (dose: 0.25 mg/kg/injection, schedule: Q01DX009 (ip), vehicle: none) was 143 % of control.

As for `CCC1=C[C@@H]2C[C@](C(=O)OC)(c3cc4c(cc3OC)N(C)[C@H]3[C@@](O)(C(=O)OC)[C@H](OC(C)=O)[C@]5(CC)C=CCN6CC[C@]43[C@@H]65)c3[nH]c4ccccc4c3CCN(C1)C2=O`, the T/C was 136 % of control (dose: 9.4 mg/kg/injection, schedule: Q01DX001 (ip), vehicle: saline with Tween-80); 136 % of control [2 of 3 alive] (dose: 18.8 mg/kg/injection, schedule: Q01DX001 (ip), vehicle: other); 139 % of control (dose: 18.8 mg/kg/injection, schedule: Q01DX001 (ip), vehicle: saline with Tween-80); 145 % of control (dose: 18.8 mg/kg/injection, schedule: Q01DX001 (ip), vehicle: suspension in saline); 146 % of control [2 of 3 alive] (dose: 37.5 mg/kg/injection, schedule: Q01DX001 (ip), vehicle: other); 139 % of control (dose: 37.5 mg/kg/injection, schedule: Q01DX001 (ip), vehicle: saline with Tween-80). Further, the T/C (dose: 56.3 mg/kg/injection, schedule: Q01DX001 (ip), vehicle: saline with Tween-80) was 139 % of control [2 of 3 alive]. The survivor count by setting is: (dose: 56.33 mg/kg/injection, schedule: Q01DX001 (ip), vehicle: other) 0 of 3; (dose: 75.0 mg/kg/injection, schedule: Q01DX001 (ip), vehicle: suspension in saline) 1 of 3; (dose: 84.4 mg/kg/injection, schedule: Q01DX001 (ip), vehicle: other) 0 of 3; (dose: 84.4 mg/kg/injection, schedule: Q01DX001 (ip), vehicle: saline with Tween-80) 0 of 3; (dose: 150.0 mg/kg/injection, schedule: Q01DX001 (ip), vehicle: suspension in saline) 0 of 3; (dose: 300.0 mg/kg/injection, schedule: Q01DX001 (ip), vehicle: suspension in saline) 0 of 3.

In the case of `Cc1cc(NCCCCCCCNc2cc(C)nc3cc([N+](=O)[O-])ccc23)c2ccc([N+](=O)[O-])cc2n1`, the T/C is, setting by setting: (dose: 3.13 mg/kg/injection, schedule: Q01DX009 (ip), vehicle: water) 132 % of control; (dose: 6.25 mg/kg/injection, schedule: Q01DX009 (ip), vehicle: water) 135 % of control; (dose: 12.5 mg/kg/injection, schedule: Q01DX009 (ip), vehicle: water) 149 % of control; (dose: 25.0 mg/kg/injection, schedule: Q01DX009 (ip), vehicle: water, evaluated on day 30) 137 % of control; (dose: 25.0 mg/kg/injection, schedule: Q01DX009 (ip), vehicle: water, evaluated on day 45) 140 % of control; (dose: 37.5 mg/kg/injection, schedule: Q01DX009 (ip), vehicle: water) 128 % of control [5 of 6 alive]. Further, the T/C (dose: 56.3 mg/kg/injection, schedule: Q01DX009 (ip), vehicle: water) was 128 % of control [4 of 6 alive]. In addition, the survivor count is on record as 3 of 6 (dose: 50.0 mg/kg/injection, schedule: Q01DX009 (ip), vehicle: water); 0 of 6 (dose: 100.0 mg/kg/injection, schedule: Q01DX009 (ip), vehicle: water); 0 of 6 (dose: 200.0 mg/kg/injection, schedule: Q01DX009 (ip), vehicle: water); 0 of 6 (dose: 400.0 mg/kg/injection, schedule: Q01DX009 (ip), vehicle: water).

Take `C[Si](C)(C)CCCNCCNCCC[Si](C)(C)C`: under setting [4], the survivor count is 1 of 6.

With `Nc1cc2c(c[n+](Cc3ccccc3)c3ccccc23)c2ccccc12`, the survivor count reads like this: (dose: 3.13 mg/kg/injection, schedule: Q04DX003 (ip), vehicle: water) 1 of 6; (dose: 6.25 mg/kg/injection, schedule: Q04DX003 (ip), vehicle: water) 0 of 6; (dose: 12.5 mg/kg/injection, schedule: Q04DX003 (ip), vehicle: water) 6 of 6; (dose: 25.0 mg/kg/injection, schedule: Q04DX003 (ip), vehicle: water) 6 of 6; (dose: 50.0 mg/kg/injection, schedule: Q04DX003 (ip), vehicle: water) 4 of 6; (dose: 100.0 mg/kg/injection, schedule: Q04DX003 (ip), vehicle: water) 3 of 6. For the same compound, where the note is “dose: 200.0 mg/kg/injection, schedule: Q04DX003 (ip), vehicle: water”, the survivor count is listed as 2 of 6.

As to `O=C1C=CC(=Nc2cc3c(cc2Br)-c2ccccc2C3=O)O1`, the T/C under setting [3] was 125 % of control. Also, the survivor count under setting [1] is on record as 1 of 6.

As for `CC1SCC(=O)N1c1nncs1` (stereo not given), the T/C (dose: 240.0 mg/kg/injection, schedule: Q01DX005 (ip), vehicle: Klucel (hydroxypropylcellulose) (HPC)) is 145 % of control.

Regarding `Clc1cc2nc[nH]c2cc1Cl`, under setting [2], the survivor count is 3 of 6.

Regarding `Cc1cc2c(cc1CC(=O)O)CC(=O)NC2`, the survivor count (dose: 12.5 mg/kg/injection, schedule: Q01DX009 (ip), vehicle: distilled water + Tween-80) is recorded as 3 of 3.

In the case of `c1ccc(CC[n+]2ccccc2)cc1`, the survivor count runs as follows: (dose: 50.0 mg/kg/injection, schedule: Q01DX009 (ip), vehicle: saline) 2 of 6; (dose: 100.0 mg/kg/injection, schedule: Q01DX009 (ip), vehicle: saline) 0 of 6.

Consider `NC(C(=O)O)C(N)C(=O)O` (stereo not given), for which, under setting [2], the survivor count is on record as 6 of 6.

For `COC(=O)c1cc(-c2ccc([N+](=O)[O-])cc2)n2c(N)nnc2n1`, under setting [4], the survivor count was 6 of 6.

Take `O=C1CCSC(=S)N1c1ccc(Cl)c([N+](=O)[O-])c1`: the T/C (dose: 200.0 mg/kg/injection, schedule: Q01DX009 (ip), vehicle: suspension in saline) is 133 % of control.

With `CC(=O)Nc1ccc(S(=O)(=O)Nc2cnccn2)cc1`, the survivor count (dose: 200.0 mg/kg/injection, schedule: Q01DX001 (ip), vehicle: saline with Tween-80) is reported as 3 of 6 and the survivor count (dose: 400.0 mg/kg/injection, schedule: Q01DX001 (ip), vehicle: saline with Tween-80) is reported as 0 of 6.

Consider `C[C@@H]1C[C@](O)([C@@H](C)Cl)C(=O)O[C@@H]2CCN3CC=C(COC(=O)[C@]1(C)O)[C@H]23`, for which, for the setting “dose: 44.0 mg/kg/injection, schedule: Q01DX009 (ip), vehicle: saline”, the survivor count is listed as 2 of 5.

For `C=C1C(=O)OC2C[C@@]3(C)CC(O)C[C@H](C)C3=CC12` (stereo not given in full), the survivor count reads like this: (dose: 80.0 mg/kg/injection, schedule: Q01DX009 (ip), vehicle: distilled water + Tween-80 + alcohol) 2 of 6; (dose: 150.0 mg/kg/injection, schedule: Q01DX009 (ip), vehicle: distilled water + Tween-80 + alcohol) 4 of 4; (dose: 300.0 mg/kg/injection, schedule: Q01DX009 (ip), vehicle: distilled water + Tween-80 + alcohol) 0 of 4.

`NC(=O)C1CCCN1C(=O)C1CCCN(Cc2ccc(CN3CCCC(C(=O)N4CCCC4C(N)=O)C3)cc2)C1` (stereo not given): the survivor count (dose: 240.0 mg/kg/injection, schedule: Q01DX005 (ip), vehicle: saline) was 2 of 6.

For `NNC(=O)c1ccccc1O`, under setting [2], the survivor count is given as 5 of 6.
